Measurements: patent US20200325230A1
These are yes or no findings as the source states them, for the method shown. Some results given as binding are weak or reduced against the parent protein; the word gives no strength.

Key:
[1] = target: cynomolgus BTLA expressed on HEK-293 cells (cynomolgus); assay: flow cytometry on HEK 293 cells expressing cynomolgus BTLA
[2] = target: cynomolgus BTLA expressed on HEK-293 cells (cynomolgus); assay: flow cytometry on HEK-293 cells expressing cynomolgus BTLA
[3] = target: cynomolgus BTLA expressed on HEK-293 cells (cynomolgus); assay: flow cytometry, 293 cells expressing cynomolgus BTLA, fluorophore-conjugated anti-human IgG secondary

Measured: binding

B1: anti-BTLA antibody 13-F7A (antibody, V domains shown)
VH: EVQLLESGGGLVQPGGSLRLSCAASGFTSSSYGMSWVRQAPGKGLEWVSGISGSGGGTYYADSVKGRFTISRDNSKNTLYLQMNSLRAEDTAVYYCAKGDYYGSGSYPLFDYWGQGTLVTVSS
VL: AIQLTQSPSSLSASVGDRVTITCRASQDISSALAWYQQKPGKAPKLLISDASSLESGVPSRFSGSGSGTDFTLTISSLQPEDFATFYCQQFNNYPPTFGPGTKVDIK
binds: all assays above
